The record followed here is publication PMC7901536 (Arteriosclerosis, thrombosis, and vascular biology, 2021).

Chains of the proteins cited; added tags and fusions are not shown. Lines headed by an entry give the natural chain unless they say otherwise; changes in a name come on top. Residues count along the entry.
UniProt Q9HCN6, residues 21-267: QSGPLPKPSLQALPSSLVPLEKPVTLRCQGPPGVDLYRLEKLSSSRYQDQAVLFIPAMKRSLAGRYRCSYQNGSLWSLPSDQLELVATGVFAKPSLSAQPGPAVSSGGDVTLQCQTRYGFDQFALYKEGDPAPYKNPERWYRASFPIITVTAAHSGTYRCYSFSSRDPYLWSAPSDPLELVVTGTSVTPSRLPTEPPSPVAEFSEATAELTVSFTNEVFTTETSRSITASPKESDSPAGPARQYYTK
UniProt P02671: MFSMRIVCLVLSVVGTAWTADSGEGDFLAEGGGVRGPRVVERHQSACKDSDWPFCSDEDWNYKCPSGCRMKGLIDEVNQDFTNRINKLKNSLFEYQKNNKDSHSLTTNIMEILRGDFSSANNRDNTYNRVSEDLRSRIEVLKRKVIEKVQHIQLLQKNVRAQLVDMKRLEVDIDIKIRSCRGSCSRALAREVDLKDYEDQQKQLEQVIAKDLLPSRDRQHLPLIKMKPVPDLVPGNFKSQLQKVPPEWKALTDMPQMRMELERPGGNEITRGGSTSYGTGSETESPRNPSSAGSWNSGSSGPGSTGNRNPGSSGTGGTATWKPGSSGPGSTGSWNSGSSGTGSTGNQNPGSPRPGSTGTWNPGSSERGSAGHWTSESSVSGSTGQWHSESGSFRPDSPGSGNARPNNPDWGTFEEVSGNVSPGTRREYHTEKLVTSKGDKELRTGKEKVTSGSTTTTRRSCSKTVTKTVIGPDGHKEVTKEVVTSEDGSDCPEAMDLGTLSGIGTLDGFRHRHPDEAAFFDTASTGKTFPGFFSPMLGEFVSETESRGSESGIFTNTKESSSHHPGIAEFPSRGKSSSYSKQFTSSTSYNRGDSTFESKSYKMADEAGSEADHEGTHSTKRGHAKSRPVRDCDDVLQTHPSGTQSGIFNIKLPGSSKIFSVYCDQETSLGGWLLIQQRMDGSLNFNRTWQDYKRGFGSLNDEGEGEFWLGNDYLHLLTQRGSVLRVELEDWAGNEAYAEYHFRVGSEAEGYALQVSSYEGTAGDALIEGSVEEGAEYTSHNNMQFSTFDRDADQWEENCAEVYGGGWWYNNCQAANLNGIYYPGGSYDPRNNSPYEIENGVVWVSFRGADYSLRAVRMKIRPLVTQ

Results are given in words; binding and its absence hold for the method and conditions named. Some entries that bind do so weakly or less than the wild type.

In test [1] the target is dimeric GPVI (GPVI extracellular domain fused by IgG-Fc) (UniProt Q9HCN6). In words: SEC; gel filtration of GPVI monomer and of GPVI dimer alone (Figure VIII in the Data Supplement); both purified.
Test [2] shares this target. In words: SPR; biotinylated monomeric (140 RU) or dimeric (600 RU) GPVI on SA chip; monomeric GPVI over monomer and dimeric GPVI over dimer, up to 20 μM; 25 °C; both purified. Background: Surface plasmon resonance follows binding to a sensor surface in real time, without labels.
Test [3] concerns the target fibrin from plasma purified (IF-1) fibrinogen (UniProt P02671). Kind of test: ELISA; plates coated with 10 nM fibrinogen, collagen fibrils or CRP-XL (fibrin made on the plate with 0.1 U/mL thrombin); GPVI constructs in solution at 100 nM or 0-400 nM, 1 h; detected by anti-human IgG-Fc HRP (dimer) or anti-6-His HRP (monomer); normalised to BSA; both purified. Background: ELISA stands for enzyme-linked immunosorbent assay.

Test [4] has as its target monomeric GPVI (His-tagged GPVI extracellular domain) (UniProt Q9HCN6). Kind of test: SEC; gel filtration of GPVI monomer and of GPVI dimer alone (Figure VIII in the Data Supplement); both purified. A general note: Size exclusion chromatography separates by hydrodynamic size, large species first.
For test [5] the target is unchanged. Kind of test: SPR; biotinylated monomeric (140 RU) or dimeric (600 RU) GPVI on SA chip; monomeric GPVI over monomer and dimeric GPVI over dimer, up to 20 μM; 25 °C; both purified.

For the substance “dimeric GPVI (GPVI extracellular domain fused by IgG-Fc) (from UniProt Q9HCN6 21-267) (Fc fusion)”, the binding entry in test [1] is “no binding”; in test [2] it was “no binding (tested: up to 20 μM)”; in test [3] it was “binds”.

In the case of “monomeric GPVI (His-tagged GPVI extracellular domain) (from UniProt Q9HCN6 21-267) (receptor)”, the binding entry in test [4] was “no binding”; in test [5], “no binding (tested: up to 20 μM)”; in test [3], “binds”.
